Test results published in patent publication US5945125A, “Controlled release tablet” (Temple University, priority 1996, dated 1999).
Like-named read-outs stand apart in the source and are kept apart here.

[1] = tablet with hydroxypropyl-beta-cyclodextrin, water without sodium lauryl sulfate (FIG. 20)

| SMILES | release profile compared with other tablets / Procardia XL (PEO tablets, in vitro release) | duration of dissolution of released drug after polymer completely dissolves (PEO tablets) | lag time of release (PEO tablets) | shape of release profile (PEO tablets) | lag time of release (PEO tablets, listed as nifidipine) | release at leveling off (equilibrium concentration) [1] | release up to which profile is linear (zero order) [1] |
| --- | --- | --- | --- | --- | --- | --- | --- |
| COC(=O)C1=C(C)NC(C)=C(C(=O)OC)C1c1ccccc1[N+](=O)[O-] [granulated nifedipine, nifedipine] | performed similarly to a 30 mg Procardia XL™ tablet | – | – | – | – | – | – |
| COC(=O)C1=C(C)NC(C)=C(C(=O)OC)C1c1ccccc1[N+](=O)[O-] [nifedipine] | – | approximately three hours | approximately one hour | sigmoidal pattern | a lag time was observed | 45-47% | up to 30% |
